Source: the supplement of paper PMC8728848
The other results are listed elsewhere or left out.

How the values were obtained:
Assay in all cases: glycan array binding signal (z-score within array); higher = stronger binding
Details in all cases: glycan notation: IUPAC condensed, linker removed
[1] = target: Gal(b1-4)GlcNAc(b1-2)[Gal(b1-4)GlcNAc(b1-6)]Man(a1-6)[GlcNAc(b1-4)][Gal(b1-4)GlcNAc(b1-2)Man(a1-3)]Man(b1-4)GlcNAc(b1-4)GlcNAc
Outline: (§1)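 Arrays were curated from the Consortium for Functional Glycomics database, 3228 in total, and kept only where the protein sequence was available. Binding is expressed as a within-array Z-score. This score was averaged across arrays of the same protein sequence at different concentrations or buffers and across linkers, and negative values can be read as non-binding.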

[2] = target: Gal(b1-4)GlcNAc(b1-2)[Gal(b1-4)GlcNAc(b1-6)]Man(a1-6)[GlcNAc(b1-4)][Gal(b1-4)GlcNAc(b1-2)[Gal(b1-4)GlcNAc(b1-4)]Man(a1-3)]Man(b1-4)GlcNAc(b1-4)[Fuc(a1-6)]GlcNAc
Outline: as §1

[3] = target: Gal(b1-4)GlcNAc(b1-3)Gal(b1-3)GalNAc
Outline: as §1

[4] = target: Gal(b1-4)GlcNAc(b1-3)Gal(b1-3)GlcNAc
Outline: as §1

[5] = target: Gal(b1-4)GlcNAc(b1-3)Gal(b1-4)Glc
Outline: as §1

[6] = target: Gal(b1-4)GlcNAc(b1-3)Gal(b1-4)GlcNAc
Outline: as §1

[7] = target: Gal(b1-4)GlcNAc(b1-3)Gal(b1-4)GlcNAc(b1-2)Man(a1-3)[Gal(b1-4)GlcNAc(b1-3)Gal(b1-4)GlcNAc(b1-2)Man(a1-6)]Man(b1-4)GlcNAc(b1-4)GlcNAc
Outline: as §1

[8] = target: Gal(b1-4)GlcNAc(b1-3)Gal(b1-4)GlcNAc(b1-2)Man(a1-3)[Gal(b1-4)GlcNAc(b1-3)Gal(b1-4)GlcNAc(b1-2)Man(a1-6)]Man(b1-4)GlcNAc(b1-4)[Fuc(a1-6)]GlcNAc
Outline: as §1

[9] = target: Gal(b1-4)GlcNAc(b1-3)Gal(b1-4)GlcNAc(b1-2)[Gal(b1-4)GlcNAc(b1-3)Gal(b1-4)GlcNAc(b1-6)]Man(a1-6)[Gal(b1-4)GlcNAc(b1-3)Gal(b1-4)GlcNAc(b1-2)Man(a1-3)]Man(b1-4)GlcNAc(b1-4)GlcNAc
Outline: as §1

[10] = target: Gal(b1-4)GlcNAc(b1-3)Gal(b1-4)GlcNAc(b1-2)[Gal(b1-4)GlcNAc(b1-3)Gal(b1-4)GlcNAc(b1-6)]Man(a1-6)[Gal(b1-4)GlcNAc(b1-3)Gal(b1-4)GlcNAc(b1-2)Man(a1-3)]Man(b1-4)GlcNAc(b1-4)[Fuc(a1-6)]GlcNAc
Outline: as §1

[11] = target: Gal(b1-4)GlcNAc(b1-3)Gal(b1-4)GlcNAc(b1-3)Gal(b1-4)GlcNAc
Outline: as §1

[12] = target: Gal(b1-4)GlcNAc(b1-3)Gal(b1-4)GlcNAc(b1-3)Gal(b1-4)GlcNAc(b1-2)Man(a1-3)[Gal(b1-4)GlcNAc(b1-3)Gal(b1-4)GlcNAc(b1-3)Gal(b1-4)GlcNAc(b1-2)Man(a1-6)]Man(b1-4)GlcNAc(b1-4)GlcNAc
Outline: as §1

[13] = target: Gal(b1-4)GlcNAc(b1-3)Gal(b1-4)GlcNAc(b1-3)Gal(b1-4)GlcNAc(b1-2)Man(a1-3)[Gal(b1-4)GlcNAc(b1-3)Gal(b1-4)GlcNAc(b1-3)Gal(b1-4)GlcNAc(b1-2)Man(a1-6)]Man(b1-4)GlcNAc(b1-4)[Fuc(a1-6)]GlcNAc
Outline: as §1

[14] = target: Gal(b1-4)GlcNAc(b1-3)Gal(b1-4)GlcNAc(b1-3)Gal(b1-4)GlcNAc(b1-2)[Gal(b1-4)GlcNAc(b1-3)Gal(b1-4)GlcNAc(b1-3)Gal(b1-4)GlcNAc(b1-6)]Man(a1-6)[Gal(b1-4)GlcNAc(b1-3)Gal(b1-4)GlcNAc(b1-3)Gal(b1-4)GlcNAc(b1-2)Man(a1-3)]Man(b1-4)GlcNAc(b1-4)[Fuc(a1-6)]GlcNAc
Outline: as §1

[15] = target: Gal(b1-4)GlcNAc(b1-3)Gal(b1-4)GlcNAc(b1-3)Gal(b1-4)GlcNAc(b1-3)Gal(b1-4)GlcNAc(b1-2)Man(a1-3)[Gal(b1-4)GlcNAc(b1-3)Gal(b1-4)GlcNAc(b1-3)Gal(b1-4)GlcNAc(b1-3)Gal(b1-4)GlcNAc(b1-2)Man(a1-6)]Man(b1-4)GlcNAc(b1-4)GlcNAc
Outline: as §1

[16] = target: Gal(b1-4)GlcNAc(b1-3)Gal(b1-4)GlcNAc(b1-3)Gal(b1-4)GlcNAc(b1-3)Gal(b1-4)GlcNAc(b1-2)Man(a1-3)[Gal(b1-4)GlcNAc(b1-3)Gal(b1-4)GlcNAc(b1-3)Gal(b1-4)GlcNAc(b1-3)Gal(b1-4)GlcNAc(b1-2)Man(a1-6)]Man(b1-4)GlcNAc(b1-4)[Fuc(a1-6)]GlcNAc
Outline: as §1

[17] = target: Gal(b1-4)GlcNAc(b1-3)Gal(b1-4)GlcNAc(b1-3)Gal(b1-4)GlcNAc(b1-3)Gal(b1-4)GlcNAc(b1-2)[Gal(b1-4)GlcNAc(b1-3)Gal(b1-4)GlcNAc(b1-3)Gal(b1-4)GlcNAc(b1-3)Gal(b1-4)GlcNAc(b1-6)]Man(a1-6)[Gal(b1-4)GlcNAc(b1-3)Gal(b1-4)GlcNAc(b1-3)Gal(b1-4)GlcNAc(b1-3)Gal(b1-4)GlcNAc(b1-2)Man(a1-3)]Man(b1-4)GlcNAc(b1-4)[Fuc(a1-6)]GlcNAc
Outline: as §1

[18] = target: Gal(b1-4)GlcNAc(b1-3)Gal(b1-4)GlcNAc(b1-3)Gal(b1-4)GlcNAc(b1-3)Gal(b1-4)GlcNAc(b1-3)Gal(b1-4)GlcNAc(b1-2)Man(a1-3)[Gal(b1-4)GlcNAc(b1-3)Gal(b1-4)GlcNAc(b1-3)Gal(b1-4)GlcNAc(b1-3)Gal(b1-4)GlcNAc(b1-3)Gal(b1-4)GlcNAc(b1-2)Man(a1-6)]Man(b1-4)GlcNAc(b1-4)GlcNAc
Outline: as §1

[19] = target: Gal(b1-4)GlcNAc(b1-3)Gal(b1-4)GlcNAc(b1-3)Gal(b1-4)GlcNAc(b1-3)Gal(b1-4)GlcNAc(b1-3)Gal(b1-4)GlcNAc(b1-2)Man(a1-3)[Gal(b1-4)GlcNAc(b1-3)Gal(b1-4)GlcNAc(b1-3)Gal(b1-4)GlcNAc(b1-3)Gal(b1-4)GlcNAc(b1-3)Gal(b1-4)GlcNAc(b1-2)Man(a1-6)]Man(b1-4)GlcNAc(b1-4)[Fuc(a1-6)]GlcNAc
Outline: as §1

[20] = target: Gal(b1-4)GlcNAc(b1-3)Gal(b1-4)GlcNAc(b1-3)Gal(b1-4)GlcNAc(b1-3)Gal(b1-4)GlcNAc(b1-3)Gal(b1-4)GlcNAc(b1-2)[Gal(b1-4)GlcNAc(b1-3)Gal(b1-4)GlcNAc(b1-3)Gal(b1-4)GlcNAc(b1-3)Gal(b1-4)GlcNAc(b1-3)Gal(b1-4)GlcNAc(b1-6)]Man(a1-6)[Gal(b1-4)GlcNAc(b1-3)Gal(b1-4)GlcNAc(b1-3)Gal(b1-4)GlcNAc(b1-3)Gal(b1-4)GlcNAc(b1-3)Gal(b1-4)GlcNAc(b1-2)Man(a1-3)]Man(b1-4)GlcNAc(b1-4)[Fuc(a1-6)]GlcNAc
Outline: as §1

[21] = target: Gal(b1-4)GlcNAc(b1-3)Gal(b1-4)GlcNAc(b1-3)Gal(b1-4)GlcNAc(b1-3)Gal(b1-4)GlcNAc(b1-3)Gal(b1-4)GlcNAc(b1-3)Gal(b1-4)GlcNAc(b1-2)Man(a1-3)[Gal(b1-4)GlcNAc(b1-3)Gal(b1-4)GlcNAc(b1-3)Gal(b1-4)GlcNAc(b1-3)Gal(b1-4)GlcNAc(b1-3)Gal(b1-4)GlcNAc(b1-3)Gal(b1-4)GlcNAc(b1-2)Man(a1-6)]Man(b1-4)GlcNAc(b1-4)GlcNAc
Outline: as §1

[22] = target: Gal(b1-4)GlcNAc(b1-3)Gal(b1-4)GlcNAc(b1-3)GalNAc
Outline: as §1

[23] = target: Gal(b1-4)GlcNAc(b1-3)Gal(b1-4)GlcNAc(b1-3)[Gal(b1-4)GlcNAc(b1-3)Gal(b1-4)GlcNAc(b1-6)]GalNAc
Outline: as §1

[24] = target: Gal(b1-4)GlcNAc(b1-3)Gal(b1-4)GlcNAc(b1-6)[Gal(b1-3)]GalNAc
Outline: as §1

[25] = target: Gal(b1-4)GlcNAc(b1-3)Gal(b1-4)[Fuc(a1-3)]GlcNAc(b1-3)Gal(b1-4)[Fuc(a1-3)]GlcNAc
Outline: as §1

[26] = target: Gal(b1-4)GlcNAc(b1-3)GalNAc
Outline: as §1

[27] = target: Gal(b1-4)GlcNAc(b1-3)[Fuc(a1-3)GlcNAc(b1-6)]Gal(b1-4)Glc
Outline: as §1

[28] = target: Gal(b1-4)GlcNAc(b1-3)[Gal(b1-4)GlcNAc(b1-6)]Gal(b1-4)GlcNAc
Outline: as §1

[29] = target: Gal(b1-4)GlcNAc(b1-3)[GlcNAc(b1-6)]Gal(b1-4)GlcNAc
Outline: as §1

[30] = target: Gal(b1-4)GlcNAc(b1-6)Gal(b1-4)GlcNAc
Outline: as §1

[31] = target: Gal(b1-4)GlcNAc(b1-6)GalNAc
Outline: as §1

[32] = target: Gal(b1-4)GlcNAc(b1-6)[Gal(b1-3)]GalNAc
Outline: as §1

[33] = target: Gal(b1-4)GlcNAc(b1-6)[Gal(b1-4)GlcNAc(b1-3)]GalNAc
Outline: as §1

[34] = target: Gal(b1-4)GlcNAc6P
Outline: as §1

[35] = target: Gal(b1-6)Gal
Outline: as §1

[36] = target: Gal3S(b1-3)GalNAc
Outline: as §1

[37] = target: Gal3S(b1-3)GlcNAc
Outline: as §1

[38] = target: Gal3S(b1-3)[Fuc(a1-4)]GlcNAc
Outline: as §1

B1: SJCP1531 (Schistosoma japonicum) (protein)
chain: MFKVRIINLVNISTVLLLINLLQTKSQVNVEQLVTVLEVNIKAQLKNKTTEVLVEWNPLYQDNSMPEYRKLLDETCKLFLPFVNEKVPPSTYGGECTNANFSEAPQDGSYSRVNAELRLIYKYSDNPQIQTDRLQDDLNDREEFITSESSFVAYNPKFTVKIEKLFIPISESQTTPPPTTAKNDASKKDDDDNGGEDSKAPIDTFAMTASGNKGKKDDDDNGGEDSKAPIDTFAMTASGSKDERSTWTIIGIITLVVLIFVVIGGGITVFVKRC
Question: With B1 as the binder, how does the “glycan array binding signal (z-score)” value [1] read?
Answer: 0.237

Question: What about the “glycan array binding signal (z-score)” value [2] of the same binder?
Answer: -0.775

Question: And the “glycan array binding signal (z-score)” value [3]?
Answer: -0.642

Question: And the “glycan array binding signal (z-score)” value [4]?
Answer: -0.665

Question: And the “glycan array binding signal (z-score)” value [5]?
Answer: -0.137

Question: And the “glycan array binding signal (z-score)” value [6]?
Answer: -0.823

Question: What about the “glycan array binding signal (z-score)” value [7] of the same binder?
Answer: 0.797

Question: What about the “glycan array binding signal (z-score)” value [8] of the same binder?
Answer: 2.21

Question: What about the “glycan array binding signal (z-score)” value [9] of the same binder?
Answer: 0.413

Question: What about the “glycan array binding signal (z-score)” value [10] of the same binder?
Answer: -0.813

Question: And the “glycan array binding signal (z-score)” value [11]?
Answer: 1.89

Question: What about the “glycan array binding signal (z-score)” value [12] of the same binder?
Answer: 0.391

Question: And the “glycan array binding signal (z-score)” value [13]?
Answer: 1.52

Question: What about the “glycan array binding signal (z-score)” value [14] of the same binder?
Answer: 2.79

Question: What about the “glycan array binding signal (z-score)” value [15] of the same binder?
Answer: 0.778

Question: And the “glycan array binding signal (z-score)” value [16]?
Answer: 0.918

Question: And the “glycan array binding signal (z-score)” value [17]?
Answer: 0.937

Question: What about the “glycan array binding signal (z-score)” value [18] of the same binder?
Answer: -0.65

Question: What about the “glycan array binding signal (z-score)” value [19] of the same binder?
Answer: 0.44

Question: What about the “glycan array binding signal (z-score)” value [20] of the same binder?
Answer: 2.63

Question: What about the “glycan array binding signal (z-score)” value [21] of the same binder?
Answer: -0.153

Question: And the “glycan array binding signal (z-score)” value [22]?
Answer: -0.193

Question: What about the “glycan array binding signal (z-score)” value [23] of the same binder?
Answer: 2.8

Question: And the “glycan array binding signal (z-score)” value [24]?
Answer: 1.62

Question: What about the “glycan array binding signal (z-score)” value [25] of the same binder?
Answer: 1.49

Question: And the “glycan array binding signal (z-score)” value [26]?
Answer: -0.998

Question: What about the “glycan array binding signal (z-score)” value [27] of the same binder?
Answer: -0.422

Question: What about the “glycan array binding signal (z-score)” value [28] of the same binder?
Answer: 0.173

Question: And the “glycan array binding signal (z-score)” value [29]?
Answer: 0.811

Question: What about the “glycan array binding signal (z-score)” value [30] of the same binder?
Answer: -0.497

Question: And the “glycan array binding signal (z-score)” value [31]?
Answer: 0.703

Question: What about the “glycan array binding signal (z-score)” value [32] of the same binder?
Answer: 0.77

Question: And the “glycan array binding signal (z-score)” value [33]?
Answer: -0.768

Question: And the “glycan array binding signal (z-score)” value [34]?
Answer: 0.145

Question: And the “glycan array binding signal (z-score)” value [35]?
Answer: -0.493

Question: What about the “glycan array binding signal (z-score)” value [36] of the same binder?
Answer: 0.534

Question: And the “glycan array binding signal (z-score)” value [37]?
Answer: 0.215

Question: What about the “glycan array binding signal (z-score)” value [38] of the same binder?
Answer: -0.535
